Laboratory results from the supplement of paper PMC7125110.
± gives the standard error. The uncertainty is large for many entries.

B1: glmS ribozyme (parent)
chain: AUAAAAGCGCCAGAACUACAGAAAUGUAGUUGACGAGGAGGAGGUUUAUCGAAUUUUCGGCGGAUGCCUCCAAA

Variants of: B1
Assay: self-cleavage kobs at 10000 uM GlcN6P; higher = faster cleavage; RNA array
Settings: with glucosamine-6-phosphate
In short: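 Tracking of barcoded ribozyme variants used a hybridised Cy3 probe at 37 °C, after in situ transcription by E. coli RNA polymerase on sequenced MiSeq chips. The flowed solution held 40 μM to 10 mM glucosamine-6-phosphate in HEPES/KCl/Mg(OAc)2 buffer, and imaging ran over ~14 h. kobs was taken from exponential decay fits of normalised per-tile medians, and kcat and KM from weighted Michaelis–Menten fits.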

Variant	self-cleavage kobs at 10000 uM GlcN6P [s⁻¹]
AUAAAAGCGCCAGAACUACAGAAAUGUAGUUGACGAGGAGGAGGUUUAUCGAAUGUCCGGCGGAUCCCUGAAAA	2.97e-05 ± 1.6e-05
AUAAAAGCGCCAGAACUACAGAAAUGUAGUUGACGAGGAGGAGGAUUAUCGAAUUUUCGGCGGAUGCAUCCAAA	2.69e-05 ± 1.7e-05
AUAAAAGCGCCAGAACUACAGAAAUGUAGUUGACGAGGAGGAGCUUUAUCGAAUUUUCGGCGGAUGCUUCCAAA	5.27e-05 ± 2.9e-05
AUAAAAGCGCCAGAACUACAGAAAUGUAGUUGACGAGGAGGAGGUUUAUCGAAUCUGCGGCGGAUGCCUCCAAA	3.57e-05 ± 1.9e-05
AUAAAAGCGCCAGAACUACAGAAAUGUAGUUGACGAGGGGGAGGUUUAUCGAAUUUUCGGCGGAUGUCUGCAAA	2.28e-05 ± 1.8e-05
AUAAAAGCGCCAGAACUACAGAAAUGUAGUUGACGAGGAGGAAGUGUAUCGAAUUUUCGGCGGAUGCCUCCAAA	1.56e-05 ± 1.3e-05
AUAAAAGCGCCAGAACUACAGAAAUGUAGUUGACGAGGAGGAGGGUUAUCGCAUUUUCGGCGGAUGCCUCCAAA	2.14e-05 ± 1.5e-05
AUAAAAGCGCCAGAACUACAGAAAUGUAGUUGACGAGGAGGGGGUCUUUCGAAUUUUCGGCGGAUGCCUCCAAA	3.19e-05 ± 2e-05
AUAAAAGCGCCAGAACUACAGAAAUGUAGUUGACGAGGAGGAGGUUUAUCGAAUCUUCGACGGAUGCCUCCAAA	1.32e-05 ± 1.2e-05
AUAAAAGCGCCAGAACUACAGAAAUGUAGUUGACGGGGAGGAGGUUUAUCGAAUUUUCGGCGGAUGCCGCCAAA	1.57e-05 ± 1.6e-05
AUAAAAGCGCCAGAACUACAGAAAUGUAGUUGACGAGGACGAGGUUUAUCGAAUUUUAGGCGGAUGCCUCCAAA	1.29e-05 ± 9.1e-06
AUAAAAGCGCCAGAACUACAGAAAUGUAGUUGACGAGGCGGAGGUUUAUCGAAUUUACGGCGGAUGCCUCCAAA	1.66e-05 ± 1.2e-05
AUAAAAGCGCCAGAACUACAGAAAUGUAGUUGACGAGGCGGAGGUUUAUCGAAUUUCCGGCGGAUGCCUCCAAA	1.66e-05 ± 9.5e-06
AUAAAAGCGCCAGAACUACAGAAAUGUAGUUGACGAGGAGGAGGUUUGUCGAAUUUUGGGCGGAUGCCUCCAAA	2.63e-05 ± 1.4e-05
AUAAAAGCGCCAGAACUACAGAAAUGUAGUUGACGAGGAGGAGUUUUAUCGGAUUUUCGGCGGAUGCCUCCAAA	2.22e-05 ± 2e-05
AUAAAAGCGCCAGAACUACAGAAAUGUAGUUGACGAGGAGGAGGUUUGUCGAAAUUUCGGUGGAUGCCUCCAAA	3.08e-05 ± 2.5e-05
AUAAAAGCGCCAGAACUACAGAAAUGUAGUUGACGGGGAGGAGGUUUAUCGAAUUUUCGGCGGGUGCCUCCAAA	1.95e-05 ± 1.2e-05
AUAAAAGCGCCAGAACUACAGAAAUGUAGUUGACGACGAGGAGGUUUAUCGAAUUAUCGGCGGAUGCCUCCAAA	3.24e-05 ± 1.7e-05
AUAAAAGCGCCAGAACUACAGAAAUGUAGUUGACGAGGAGGAGGAUUAUCGAAUUUUCGGCGGAUUCCUGAAAA	2.4e-05 ± 2.4e-05

Variant	self-cleavage kobs at 10000 uM GlcN6P [s⁻¹]
AUAAAAGCGCCAGAACUACAGAAAUGUAGUUGACGAGGAGGAGGUCUAUCGAAUUUUCUGCGGAUGCCUCCAAA	1.3e-05 ± 7.4e-06
AUAAAAGCGCCAGAACUACAGAAAUGUAGUUGACGAGGAGGAGGUUGAUCGAAGUUUCGGCUGAUGGCUACAAA	3.35e-05 ± 2.1e-05
AUAAAAGCGCCAGAACUACAGAAAUGUAGUUGACGAGGAGGAGGUUUGUCGAAUUUUCUGCGGAUGCCUCCAAA	3.02e-05 ± 1.8e-05
AUAAAAGCGCCAGAACUACAGAAAUGUAGUUGACGAGGAGGAGGUUUAUCGAAUUGUCGGCGGAUGCCCACAAA	3.12e-05 ± 2.3e-05
AUAAAAGCGCCAGAACUACAGAAAUGUAGUUGACGAGGAGGAUGUUUAUCGAAUUUUCGGCGGAUGCUUUCAAA	1.66e-05 ± 1.4e-05
AUAAAAGCGCCAGAACUACAGAAAUGUAGUUGACGAGGAGGAGGUUUAUGGAAUUUACGGCGUUUGCCUCCAAA	2.24e-05 ± 1.7e-05
AUAAAAGCGCCAGAACUACAGAAAUGUAGUUGACGAGGAGGAGGUUUUUGGAAUUUUCGGCGGAUGAUUCCAAA	2.31e-05 ± 2.2e-05
AUAAAAGCGCCAGAACUACAGAAAUGUAGUUGACGAGGAGGAGGUUUAACGAAUUAUCGGCGGAUGCCUAUAAA	2.43e-05 ± 2.3e-05
AUAAAAGCGCCAGAACUACAGAAAUGUAGUUGACGAGGAGGAGGUUUAUCGAAUUCUCAGCGGAUGCCUCCAAA	2.07e-05 ± 1.1e-05
AUAAAAGCGCCAGAACUACAGAAAUGUAGUUGACGAGGAGAAGGUUUAUCGAAUUUUCGGCGGAUGCCCCCAAA	2.32e-05 ± 1.4e-05
AUAAAAGCGCCAGAACUACAGAAAUGUAGUUGACGAGGAGGAGGUUUAUUGAAUUUUCGGCAGAUGCCUACAAA	2.12e-05 ± 1.8e-05
AUAAAAGCGCCAGAACUACAGAAAUGUAGUUGACGAGGAGGAGGUUUAUCGAAUGUACGGCGGAUGCCUACAAA	2.81e-05 ± 1.6e-05
AUAAAAGCGCCAGAACUACAGAAAUGUAGUUGACGAGGAGGAGGUUUAUUGAAUUUUCGGCGGAUGCCUGCAAA	1.24e-05 ± 1.1e-05
AUAAAAGCGCCAGAACUACAGAAAUGUAGUUGACGAGGAGGAGGUUUAUCGGAUUUUCGGCGGAUGCCGCCAAA	2.37e-05 ± 1.3e-05
AUAAAAGCGCCAGAACUACAGAAAUGUAGUUGACGAAGAGCAGGUUUAUCGAAUUUUCGGCGGAUGCCUCCAAA	1.64e-05 ± 1.2e-05
AUAAAAGCGCCAGAACUACAGAAAUGUAGUUGACGAGGAGAAGGUUUAUCGAAUAUUCGGCGGAUGCCUCCAAA	0.0058 ± 0.004
AUAAAAGCGCCAGAACUACAGAAAUGUAGUUGACGAGGAGGAGGUUUAUCGAAUGUUCGGAGGAUCCCUACAAA	3.37e-05 ± 1.8e-05
AUAAAAGCGCCAGAACUACAGAAAUGUAGUUGACGAGGAGGAGGUUUAUCGAAUUCUCGGCGGAUUCCUUCAAA	2.59e-05 ± 1.8e-05

A different layout for part of the listing above.
Variant,self-cleavage kobs at 10000 uM GlcN6P [s⁻¹]
AUAAAAGCGCCAGAACUACAGAAAUGUAGUUGACGGGGAGGAGGUUUAUCGAAUUUUCGGCGGGUGCCUCCAAA,1.95e-05 ± 1.2e-05
AUAAAAGCGCCAGAACUACAGAAAUGUAGUUGACGACGAGGAGGUUUAUCGAAUUAUCGGCGGAUGCCUCCAAA,3.24e-05 ± 1.7e-05
AUAAAAGCGCCAGAACUACAGAAAUGUAGUUGACGAGGAGGAGGAUUAUCGAAUUUUCGGCGGAUUCCUGAAAA,2.4e-05 ± 2.4e-05
AUAAAAGCGCCAGAACUACAGAAAUGUAGUUGACGAGGAGGAGGUCUAUCGAAUUUUCUGCGGAUGCCUCCAAA,1.3e-05 ± 7.4e-06
AUAAAAGCGCCAGAACUACAGAAAUGUAGUUGACGAGGAGGAGGUUGAUCGAAGUUUCGGCUGAUGGCUACAAA,3.35e-05 ± 2.1e-05
AUAAAAGCGCCAGAACUACAGAAAUGUAGUUGACGAGGAGGAGGUUUGUCGAAUUUUCUGCGGAUGCCUCCAAA,3.02e-05 ± 1.8e-05
